Values from PubChem BioAssay AID1224826 (NIAID, 2016).

- Aim: 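Genes that change LPS-induced Tnf promoter activity in mouse macrophages when knocked down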 (primary screen)
- Cell system: RAW264.7 G9 macrophages from mouse bearing reporters for p65 (GFP) and the Tnf promoter (mCherry)
- Reagent: siRNA pool against mouse genes, 100 nM
- Time to read-out: 16 h of LPS stimulation, after 2 days of siRNA transfection
- Conditions: bacterial lipopolysaccharide (Salmonella minnesota R595), 10 ng/ml
- Read-out: 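Nuclear mCherry signal of the Tnf promoter reporter measured by imaging after background removal, scaled to each plate median and turned into robust z-scores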
- Reading the numbers: Tnf reporter robust z-score: higher = stronger Tnf promoter reporter signal after LPS
- Call rule: 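a well counts as active at a score of -1.3 or below (Tlr4 knock-down control median) or above 3 (raised signal); controls and wells holding fewer than 50 cells are excluded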
- Calls: active = Tnf reporter clearly lowered or raised; inactive = no clear change in Tnf reporter
This is a random part of about 17,000 deposited reagents. Of all reagents, about 1,110 (6.6%) are marked active. 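Active means lowered or raised reporter signal; replicate intensities are raw and not normalised per plate.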 A number with no mark means an inactive call. The numbers tell different reagents against one gene apart. A reagent listed more than once was tested more than once; the source does not tell the runs apart. Not all columns of the deposit are shown.

Gene	reagent	Tnf reporter robust z-score	fewer than 50 cells in well
P2ry6 (pyrimidinergic receptor P2Y, G-protein coupled, 6)	1	-0.26	enough cells in well
Snx4 (sorting nexin 4)	1	1.27	enough cells in well
Rpl8 (ribosomal protein L8)	1		fewer than 50 cells per well; well left out of calls
Gnl2 (guanine nucleotide binding protein nucleolar 2)	1	0.13	enough cells in well
Pcolce (procollagen C-endopeptidase enhancer protein)	1	-1.43 (active)	enough cells in well
Mfap3l (microfibrillar-associated protein 3-like)	1	-1.1	enough cells in well
Olfm3 (olfactomedin 3)	1	3.05 (active)	enough cells in well
Minar1 (membrane integral NOTCH2 associated receptor 1)	1	0.93	enough cells in well
4931403M11Rik (RIKEN cDNA 4931403M11 gene)	1		fewer than 50 cells per well; well left out of calls
Lrrc25 (leucine rich repeat containing 25)	1	-0.72	enough cells in well
Polr1f (RNA polymerase I subunit F)	1		fewer than 50 cells per well; well left out of calls
Trim2 (tripartite motif-containing 2)	1	4.34 (active)	enough cells in well
Gpsm3 (G-protein signalling modulator 3 (AGS3-like, C. elegans))	1	0.24	enough cells in well
Or6c213 (olfactory receptor family 6 subfamily C member 213)	1		fewer than 50 cells per well; well left out of calls
Hsd3b4	1	-0.76	enough cells in well
Galntl5	1	-0.63	enough cells in well
Cnst (consortin, connexin sorting protein)	1	-0.42	enough cells in well
Tmem17 (transmembrane protein 17)	1	-0.5	enough cells in well
Suz12 (SUZ12 polycomb repressive complex 2 subunit)	1	-0.77	enough cells in well
H2-M9 (histocompatibility 2, M region locus 9)	1	-0.18	enough cells in well
Ndufab1 (NADH:ubiquinone oxidoreductase subunit AB1)	1	-1.12	enough cells in well
Ipo7 (importin 7)	1	-0.62	enough cells in well
Alg6 (ALG6 alpha-1,3-glucosyltransferase)	1	-0.96	enough cells in well
Gm4827 (predicted gene 4827)	1	-1.12	enough cells in well
Pgm2l1 (phosphoglucomutase 2-like 1)	1	0.63	enough cells in well
Aplnr (apelin receptor)	1	0.29	enough cells in well
Cryba4 (crystallin, beta A4)	1	3.03 (active)	enough cells in well
Mok (MOK protein kinase)	1	1.53	enough cells in well
Trim24 (tripartite motif-containing 24)	1	-0.31	enough cells in well
Rhpn1 (rhophilin, Rho GTPase binding protein 1)	1	1.79	enough cells in well
Stac (src homology three (SH3) and cysteine rich domain)	1	-0.69	enough cells in well
Sgcd (sarcoglycan, delta (dystrophin-associated glycoprotein))	1	-0.6	enough cells in well
Csrp3 (cysteine and glycine-rich protein 3)	1	0.81	enough cells in well
Rtn4 (reticulon 4)	1	-0.56	enough cells in well
Eif5 (eukaryotic translation initiation factor 5)	1	0.26	enough cells in well
Hoxd4 (homeobox D4)	1	0.49	enough cells in well
Ttc1 (tetratricopeptide repeat domain 1)	1	0.75	enough cells in well
Nsl1 (NSL1, MIS12 kinetochore complex component)	1		fewer than 50 cells per well; well left out of calls
Arhgef12 (Rho guanine nucleotide exchange factor 12)	1	-1.57 (active)	enough cells in well
Tprkb (Tp53rk binding protein)	1		fewer than 50 cells per well; well left out of calls
Mapk1ip1 (mitogen-activated protein kinase 1 interacting protein 1)	1		fewer than 50 cells per well; well left out of calls
Sema6c	1		fewer than 50 cells per well; well left out of calls
Arid1a (AT-rich interaction domain 1A)	1	-0.31	enough cells in well
Rtf2 (replication termination factor 2)	1		fewer than 50 cells per well; well left out of calls
Rtf2 (replication termination factor 2)	2	-1.95 (active)	enough cells in well
Luzp2 (leucine zipper protein 2)	1	0.39	enough cells in well
Ccrl2 (C-C motif chemokine receptor-like 2)	1	-0.23	enough cells in well
Gabrq (gamma-aminobutyric acid type A receptor subunit theta)	1	0.89	enough cells in well
Gpbp1 (GC-rich promoter binding protein 1)	1	-0.11	enough cells in well
Tram1l1 (translocation associated membrane protein 1-like 1)	1		fewer than 50 cells per well; well left out of calls
Oard1 (O-acyl-ADP-ribose deacylase 1)	1	-1.32 (active)	enough cells in well
Hoxa1 (homeobox A1)	1	-0.49	enough cells in well
Uba1 (ubiquitin-like modifier activating enzyme 1)	1	1.31	enough cells in well
Stk26 (serine/threonine kinase 26)	1	1.24	enough cells in well
Stk26 (serine/threonine kinase 26)	1	0.7	enough cells in well
Tubb5 (tubulin, beta 5 class I)	1	0.75	enough cells in well
Pcdhgb1 (protocadherin gamma subfamily B, 1)	1	-1.07	enough cells in well
Pik3c2g	1	-1.32 (active)	enough cells in well
Ccser2 (coiled-coil serine rich 2)	1	1.2	enough cells in well
Efnb2 (ephrin B2)	1	-0.73	enough cells in well
Gal (galanin and GMAP prepropeptide)	1	-1.32 (active)	enough cells in well
Tmem209 (transmembrane protein 209)	1	-0.03	enough cells in well
Pou3f1 (POU domain, class 3, transcription factor 1)	1	-0.46	enough cells in well
Chn1 (chimerin 1)	1	-1.1	enough cells in well
Tnip2 (TNFAIP3 interacting protein 2)	1		fewer than 50 cells per well; well left out of calls
Pde5a (phosphodiesterase 5A, cGMP-specific)	1	-0.55	enough cells in well
Pcdh12 (protocadherin 12)	1	-0.45	enough cells in well
Spock3	1	3.07 (active)	enough cells in well
Habp4 (hyaluronic acid binding protein 4)	1	0.79	enough cells in well
Adgra1 (adhesion G protein-coupled receptor A1)	1	0.29	enough cells in well
Mab21l4 (mab-21-like 4)	1		fewer than 50 cells per well; well left out of calls
Vat1 (vesicle amine transport 1)	1	-0.83	enough cells in well
Snap29 (synaptosomal-associated protein 29)	1	1.07	enough cells in well
Csnk1a1 (casein kinase 1, alpha 1)	1	-1.14	enough cells in well
Dhx16 (DEAH-box helicase 16)	1	-0.4	enough cells in well

Targets listed so far whose gene name begins with S or s (9):
Gene	reagent	Tnf reporter robust z-score	fewer than 50 cells in well
Snx4 (sorting nexin 4)	1	1.27	enough cells in well
Suz12 (SUZ12 polycomb repressive complex 2 subunit)	1	-0.77	enough cells in well
Stac (src homology three (SH3) and cysteine rich domain)	1	-0.69	enough cells in well
Sgcd (sarcoglycan, delta (dystrophin-associated glycoprotein))	1	-0.6	enough cells in well
Sema6c	1		fewer than 50 cells per well; well left out of calls
Stk26 (serine/threonine kinase 26)	1	1.24	enough cells in well
Stk26 (serine/threonine kinase 26)	1	0.7	enough cells in well
Spock3	1	3.07 (active)	enough cells in well
Snap29 (synaptosomal-associated protein 29)	1	1.07	enough cells in well
